Results are given in words; binding and its absence hold for the method and conditions named. In cells and extracts the contact can be indirect. Some results given as binding are weak or reduced against the parent protein; the word gives no strength. Tags and fused reporters may be left off the sequences shown.

In this assay the target is Myc-tagged M2 (influenza A virus matrix protein 2, A/Puerto Rico/8/34 H1N1) (influenza A virus A/Puerto Rico/8/34 H1N1 (PR8)) (UniProt P06821). Nature of the assay: co-IP.

Take “Flag-tagged YWHAG H195S mutant (from UniProt P61981 1-247)”: the binding entry is “binds”.

B1: Flag-tagged YWHAG (tyrosine 3-monooxygenase/tryptophan 5-monooxygenase activation protein gamma) (protein, UniProt P61981 1-247)
chain: MVDREQLVQKARLAEQAERYDDMAAAMKNVTELNEPLSNEERNLLSVAYKNVVGARRSSWRVISSIEQKTSADGNEKKIEMVRAYREKIEKELEAVCQDVLSLLDNYLIKNCSETQYESKVFYLKMKGDYYRYLAEVATGEKRATVVESSEKAYSEAHEISKEHMQPTHPIRLGLALNYSVFYYEIQNAPEQACHLAKTAFDDAIAELDTLNEDSYKDSTLIMQLLRDNLTLWTSDQQDDDGGEGNN
Take B1: the binding result is “binds”.
